{"source": "PubChem BioAssay AID652272 (Drosophila RNAi Screening Center, 2013)", "test": "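Finding fly genes that regulate Hedgehog signal transduction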 (primary screen)", "cells": "Drosophila clone 8 (Cl8) cells", "reagents": "long dsRNA against Drosophila genes", "read-out": "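Plate reader light from a firefly reporter under a ptc promoter fragment that responds to Hedgehog, with Renilla light as transfection reference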", "direction": "firefly Hh reporter signal: higher = more ptc reporter light; Renilla reference signal: higher = more Renilla control light", "rule for the call": "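Called a hit if the two-replicate mean z-score lies below -2 or above +3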", "meaning of the calls": "active = hit: reporter lowered or raised; inactive = not a hit", "note": "The screen tested about 21,000 reagents; shown is a random part of those that have a named target and a result. Of all reagents, 503 (2.4%) are marked active. 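Raw plate light values, not normalised; calls rest on replicate z-scores that were not deposited; hits include reporter decreases as well as increases.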 A number with no mark means an inactive call. The record does not give: the amount of reagent, the time to read-out."}
{"Gene":"CG10801","DRSC id":"DRSC17761","firefly Hh reporter signal, replicate 1":58604,"firefly Hh reporter signal, replicate 2":1.51e5,"Renilla reference signal, replicate 1":1312,"Renilla reference signal, replicate 2":5127}
{"Gene":"CG31525","DRSC id":"DRSC12004","firefly Hh reporter signal, replicate 1":2.70e5,"Renilla reference signal, replicate 1":5337}
{"Gene":"CG12107","DRSC id":"DRSC06102","firefly Hh reporter signal, replicate 1":1.08e5,"firefly Hh reporter signal, replicate 2":79794,"Renilla reference signal, replicate 1":3442,"Renilla reference signal, replicate 2":2582}
{"Gene":"CG3793","DRSC id":"DRSC01982","firefly Hh reporter signal, replicate 1":78640,"firefly Hh reporter signal, replicate 2":69898,"Renilla reference signal, replicate 1":4169,"Renilla reference signal, replicate 2":3415}
{"Gene":"CG33111","DRSC id":"DRSC14208","firefly Hh reporter signal, replicate 1":4.48e5,"firefly Hh reporter signal, replicate 2":88906,"Renilla reference signal, replicate 1":22333,"Renilla reference signal, replicate 2":3048}
{"Gene":"CG33111","DRSC id":"DRSC14444","firefly Hh reporter signal, replicate 1":6.41e5,"firefly Hh reporter signal, replicate 2":1.11e5,"Renilla reference signal, replicate 1":33498,"Renilla reference signal, replicate 2":3972}
{"Gene":"HP1Lcsd","DRSC id":"DRSC03999","firefly Hh reporter signal, replicate 1":1.49e5,"firefly Hh reporter signal, replicate 2":2.15e5,"Renilla reference signal, replicate 1":3670,"Renilla reference signal, replicate 2":9846}
{"Gene":"Boh2","DRSC id":"DRSC02777","firefly Hh reporter signal, replicate 1":1.34e5,"firefly Hh reporter signal, replicate 2":84556,"Renilla reference signal, replicate 1":3829,"Renilla reference signal, replicate 2":6688}
{"Gene":"CG34355","DRSC id":"DRSC13639","firefly Hh reporter signal, replicate 1":49139,"firefly Hh reporter signal, replicate 2":8.01e5,"firefly Hh reporter signal, replicate 3":3.20e5,"Renilla reference signal, replicate 1":12390,"Renilla reference signal, replicate 2":5776}
{"Gene":"CG34355","DRSC id":"DRSC14520","firefly Hh reporter signal, replicate 1":5.18e5,"firefly Hh reporter signal, replicate 2":1.01e5,"Renilla reference signal, replicate 1":26971,"Renilla reference signal, replicate 2":3297}
{"Gene":"CG34355","DRSC id":"DRSC14668","firefly Hh reporter signal, replicate 1":6.21e5,"firefly Hh reporter signal, replicate 2":1.34e5,"Renilla reference signal, replicate 1":32448,"Renilla reference signal, replicate 2":4048}
{"Gene":"CG34417","DRSC id":"DRSC17467","firefly Hh reporter signal, replicate 1":5.05e5,"firefly Hh reporter signal, replicate 2":1.57e5,"Renilla reference signal, replicate 1":26859,"Renilla reference signal, replicate 2":3792}
{"Gene":"CG34417","DRSC id":"DRSC18332","firefly Hh reporter signal, replicate 1":1.01e5,"firefly Hh reporter signal, replicate 2":2.91e5,"Renilla reference signal, replicate 1":4264,"Renilla reference signal, replicate 2":11307}
{"Gene":"CG34417","DRSC id":"DRSC18333","firefly Hh reporter signal, replicate 1":1.11e5,"firefly Hh reporter signal, replicate 2":72972,"Renilla reference signal, replicate 1":2872,"Renilla reference signal, replicate 2":1797}
{"Gene":"TTLL1B","DRSC id":"DRSC08594","firefly Hh reporter signal, replicate 1":46517,"firefly Hh reporter signal, replicate 2":42112,"Renilla reference signal, replicate 1":4306,"Renilla reference signal, replicate 2":3275}

Continued (3 carried over from the part before).
{"Gene":"CG34417","DRSC id":"DRSC18332","firefly Hh reporter signal, replicate 1":1.01e5,"firefly Hh reporter signal, replicate 2":2.91e5,"Renilla reference signal, replicate 1":4264,"Renilla reference signal, replicate 2":11307}
{"Gene":"CG34417","DRSC id":"DRSC18333","firefly Hh reporter signal, replicate 1":1.11e5,"firefly Hh reporter signal, replicate 2":72972,"Renilla reference signal, replicate 1":2872,"Renilla reference signal, replicate 2":1797}
{"Gene":"TTLL1B","DRSC id":"DRSC08594","firefly Hh reporter signal, replicate 1":46517,"firefly Hh reporter signal, replicate 2":42112,"Renilla reference signal, replicate 1":4306,"Renilla reference signal, replicate 2":3275}
{"Gene":"Galphao","DRSC id":"DRSC07430","firefly Hh reporter signal, replicate 1":91097,"firefly Hh reporter signal, replicate 2":81107,"Renilla reference signal, replicate 1":4194,"Renilla reference signal, replicate 2":3523}
{"Gene":"Cmpk","DRSC id":"DRSC16643","firefly Hh reporter signal, replicate 1":1.20e5,"firefly Hh reporter signal, replicate 2":1.23e5,"Renilla reference signal, replicate 1":2770,"Renilla reference signal, replicate 2":3003}
{"Gene":"Kmn1","DRSC id":"DRSC19666","firefly Hh reporter signal, replicate 1":84152,"firefly Hh reporter signal, replicate 2":2.08e5,"Renilla reference signal, replicate 1":3024,"Renilla reference signal, replicate 2":8121}
{"Gene":"GluRIIA","DRSC id":"DRSC03334","firefly Hh reporter signal, replicate 1":85840,"firefly Hh reporter signal, replicate 2":39302,"Renilla reference signal, replicate 1":1489,"Renilla reference signal, replicate 2":4480}
{"Gene":"CG12540","DRSC id":"DRSC19471","firefly Hh reporter signal, replicate 1":1.04e5,"firefly Hh reporter signal, replicate 2":1.74e5,"Renilla reference signal, replicate 1":3079,"Renilla reference signal, replicate 2":7992}
{"Gene":"Rrp46","DRSC id":"DRSC15537","firefly Hh reporter signal, replicate 1":1.66e5,"firefly Hh reporter signal, replicate 2":1.21e5,"Renilla reference signal, replicate 1":5712,"Renilla reference signal, replicate 2":4000}
{"Gene":"Tsp5D","DRSC id":"DRSC18380","firefly Hh reporter signal, replicate 1":92989,"firefly Hh reporter signal, replicate 2":2.33e5,"Renilla reference signal, replicate 1":2498,"Renilla reference signal, replicate 2":9611}
{"Gene":"CG14621","DRSC id":"DRSC20635","firefly Hh reporter signal, replicate 1":52857,"firefly Hh reporter signal, replicate 2":1.55e5,"Renilla reference signal, replicate 1":1301,"Renilla reference signal, replicate 2":6491}
{"Gene":"ACXA","DRSC id":"DRSC00844","firefly Hh reporter signal, replicate 1":1.66e5,"firefly Hh reporter signal, replicate 2":63379,"Renilla reference signal, replicate 1":4336,"Renilla reference signal, replicate 2":6117}
{"Gene":"Cog2","DRSC id":"DRSC16987","firefly Hh reporter signal, replicate 1":60996,"firefly Hh reporter signal, replicate 2":86760,"Renilla reference signal, replicate 1":1476,"Renilla reference signal, replicate 2":1867}
{"Gene":"CG31787","DRSC id":"DRSC01632","firefly Hh reporter signal, replicate 1":75416,"firefly Hh reporter signal, replicate 2":1.48e5,"Renilla reference signal, replicate 1":1072,"Renilla reference signal, replicate 2":6755}
{"Gene":"ath","DRSC id":"DRSC02788","firefly Hh reporter signal, replicate 1":74480,"firefly Hh reporter signal, replicate 2":52422,"Renilla reference signal, replicate 1":2165,"Renilla reference signal, replicate 2":4704}
